The results in this text go back to patent publication US5750531A, “Pyrimidine derivatives and processes for the preparation thereof” (Yuhan Corporation, priority 1994, dated 1998).

In the data set the test system is proton pump(H^+ /K^+ ATPase). Put plainly: Inhibition of proton pump(H^+ /K^+ ATPase) activity. The format is biochemical. Conditions: IC50 omeprazole / IC50 test compound. The protocol:
Test 1: Inhibition of proton pump(H^+ /K^+ ATPase) activity
A proton pump enzyme source was prepared by the same method as in Experiment 1-1 of WO 94/14795. Further, the inhibitory effect of proton pump activity was measured by the same method as in Experiment 1-2 of WO 94/14795.
Namely, the proton pump activity stimulated by Mg^++ was used as a negative comparative group, and the activity stimulated by Mg^++ and K^+ was used as a positive comparative group. The comparative compound was omeprazole.
Test tubes were divided into 4 groups: Group 1 as negative comparative group(n=3), Group 2 as positive comparative group(n=3), Group 3(n=5×2) to be administered with the compound of the present invention and Group 4(n=5×2) to be administered with the comparative compound.
The inhibitory effects of Groups 3 and 4 on proton pump activity were measured by employing the compound prepared in Example and omeperazole, respectively, each of which was dissolved in dimethylsulfoxide at 5 different concentrations.
To each of Groups 1, 2, 3 and 4 were added 100 μl of magnesium chloride(40 mM) dissolved in 40 mM Tris-HCl buffer(pH 6.0) and 100μ of the enzyme source. Then, 50μ of potassium chloride(50 mM) and 50 μl of ammonium chloride(6 mM) dissolved in 40 mM Tris-HCl buffer(pH 6.0) were added to all groups except for Group 1.
10 μl of dimethylsulfoxide was added to each of Groups 1 and 2; and to Group 3 was added 10 μl of the solution in which the compound prepared in Example was dissolved in dimethylsulfoxide at 5 different concentrations(n=5×2). To Group 4, 10 μl of the solution prepared by dissolving omeprazole in dimethylsulfoxide at 5 different concentrations(37.6, 21.4, 12.2, 7.0 and 4.0 μM) was added(n=5×2). 40 mM Tris-HCl buffer(pH=6.0) was added thereto so as to make the total volume 400 μl.
Thereafter, the test tubes of each Group were placed at 37° C. for 30 minutes for the preincubation. 100 μl of ATP solution (6.6 mM) was added until the reaction volume became 500 μl. After the reaction was carried out at 37° C. for 30 minutes, 25% cold trichloroacetic acid was added to terminate the enzyme reaction. The released inorganic phosphate was measured by an automatic analyzer(Express 550, Corning).
The difference between Group 1 and Group 2 represents the proton pump activity activated by K^+ only. The inhibition percentages of Groups 3 and 4 were calculated from Litchfield-wilcoxon equation[see, e.g., J. pharmacol. Exp. Ther., 96, 99(1949)]. The concentrations of the test compounds which inhibit 50% of the proton pump activity are represented as IC50 in Table 1.

Where a name gives a salt, the structure may show the parent alone.

For `Cc1cc(N2CCc3ccccc3C2)nc(Nc2ccc(F)cc2C)n1.Cl` [Example 34, 6-methyl-2-(2-methyl-4-fluorophenylamino)-4-(1,2,3,4-tetrahydroisoquinolin-2-yl)pyrimidine hydrochloride], the Effect ratio is 4.02.

As to `Cc1cc(N2CCc3ccccc3C2)nc(Nc2ccc(F)cc2)n1.Cl` [Example 35, 6-methyl-2-(4-fluorophenylamino)-4-(1,2,3,4-tetrahydroisoquinoline-2-yl)pyrimidine hydrochloride], the Effect ratio was 4.02.

For `CCc1cc(N2CCc3ccccc3C2)nc(Nc2ccc(F)cc2C)n1.Cl` [Example 37, 6-ethyl-2-(2-methyl-4-fluorophenylamino)-4-(1,2,3,4-tetrahydroisoquinolin-2-yl)pyrimidine hydrochloride], the Effect ratio came to 9.85.

In the case of `CCc1cc(N2CCc3ccccc3C2)nc(Nc2ccc(F)cc2)n1.Cl` [Example 38, 6-ethyl-2-(4-fluorophenylamino)-4-(1,2,3,4-tetrahydroisoquinolin-2-yl)pyrimidine hydrochloride], the Effect ratio is on record as 3.24.

Turning to `CCc1cc(N2CCc3ccccc3C2)nc(N(C)c2ccccc2)n1.Cl` [Example 39, 6-ethyl-2-(N-methylphenylamino)-4-(1,2,3,4-tetrahydroisoquinolin-2-yl)pyrimidine hydrochloride], the Effect ratio is listed as below 0.95.

On to `CCc1cc(N2CCc3ccccc3C2)nc(Nc2ccccc2C)n1.Cl` [Example 40, 6-ethyl-2-(2-methylphenylamino)-4-(1,2,3,4-tetrahydroisoquinolin-2-yl)pyrimidine hydrochloride], for which the Effect ratio was determined as 9.17.

For the compound `Cc1cc(F)ccc1Nc1nc(C)c(C)c(N2CCc3ccccc3C2)n1.Cl` [Example 41, 5,6-dimethyl-2-(2-methyl-4-fluorophenylamino)-4-(1,2,3,4-tetrahydroisoquinolin-2-yl)pyrimidine hydrochloride], the Effect ratio is reported as 18.10.

Take `Cc1nc(Nc2ccc(F)cc2)nc(N2CCc3ccccc3C2)c1C.Cl` [Example 42, 5,6-dimethyl-2-(4-fluorophenylamino)-4-(1,2,3,4-tetrahydroisoquinolin-2-yl)pyrimidine hydrochloride]: the Effect ratio came out at 4.95.

Take `Cc1nc(N(C)c2ccccc2)nc(N2CCc3ccccc3C2)c1C.Cl` [Example 43, 5,6-dimethyl-2-(N-methylphenylamino)-4-(1,2,3,4-tetrahydroisoquinolin-2-yl)pyrimidine hydrochloride]: the Effect ratio is 14.44.

As for `CCc1nc(Nc2ccc(F)cc2C)nc(N2CCc3ccccc3C2)c1C.Cl` [Example 44, 5-methyl-6-ethyl-2-(2-methyl-4-fluorophenylamino)-4-(1,2,3,4-tetrahydroisoquinolin-2-yl)pyrimidine hydrochloride], the Effect ratio was ~ 1.08.

With `CCc1nc(Nc2ccc(F)cc2)nc(N2CCc3ccccc3C2)c1C.Cl` [Example 45, 5-methyl-6-ethyl-2-(4-fluorophenylamino)-4-(1,2,3,4-tetrahydroisoquinolin-2-yl)pyrimidine hydrochloride], the Effect ratio is given as 4.12.

With `CCc1nc(N(C)c2ccccc2)nc(N2CCc3ccccc3C2)c1C.Cl` [Example 46, 5-methyl-6-ethyl-2-(N-methylphenylamino)-4-(1,2,3,4-tetrahydroisoquinolin-2-yl)pyrimidine hydrochloride], the Effect ratio is listed as ~ 0.60.

As for `Cc1cc(F)ccc1Nc1nc2c(c(N3CCc4ccccc4C3)n1)CCC2` [Example 47, 2-(2-methyl-4-fluorophenylamino)-4-(1,2,3,4-tetrahydroisoquinolin-2-yl)cyclopenta[d]pyrimidine hydrochloride], the Effect ratio is ~ 1.54.

`Cc1cc(F)ccc1Nc1nc2c(c(N3CCc4ccccc4C3)n1)CCCC2.Cl` [Example 48, 2-(2-methyl-4-fluorophenylamino)-4-(1,2,3,4-tetrahydroisoquinolin-2-yl)-5,6,7,8-tetrahydroquinazoline hydrochloride]: the Effect ratio is reported as ~ 1.97.

`Cl.Fc1ccc(Nc2nc3c(c(N4CCc5ccccc5C4)n2)CCCC3)cc1` [Example 49, 2-(4-fluorophenylamino)-4-(1,2,3,4-tetrahydroisoquinolin-2-yl)-5,6,7,8-tetrahydroquinazoline hydrochloride]: the Effect ratio is ~ 1.13.

Regarding `CN(c1ccccc1)c1nc2c(c(N3CCc4ccccc4C3)n1)CCCC2.Cl` [Example 50, 2-(N-methylphenylamino)-4-(1,2,3,4-tetrahydroisoquinolin-2-yl)-5,6,7,8-tetrahydroquinazoline hydrochloride], the Effect ratio is reported as ~ 0.70.

For the compound `Cc1ccccc1Nc1nc2c(c(N3CCc4ccccc4C3)n1)CCCC2.Cl` [Example 51, 2-(2-methylphenylamino)-4-(1,2,3,4-tetrahydroisoquinolin-2-yl)-5,6,7,8-tetrahydroquinazoline hydrochloride], the Effect ratio was found to be 7.05.

Regarding `Cc1cc(N2CCc3ccsc3C2C)nc(Nc2ccc(F)cc2C)n1.Cl` (stereo not shown) [Example 52, 6-methyl-2-(2-methyl-4-fluorophenylamino)-4-(7-methyl-4,5,6,7-tetrahydrothieno[2,3-c]pyridin-6-yl)pyrimidine hydrochloride], the Effect ratio is reported as 21.11.

For the compound `Cc1cc(N2CCc3ccsc3C2C)nc(Nc2ccc(F)cc2)n1.Cl` (stereo not shown) [Example 53, 6-methyl-4-(7-methyl-4,5,6,7-tetrahydrothieno[2,3-c]pyridin-6-yl)-2-(4-fluorophenylamino)pyrimidine hydrochloride], the Effect ratio worked out at 5.38.

Turning to `Cc1cc(N2CCc3ccsc3C2C)nc(N(C)c2ccccc2)n1.Cl` (stereo not shown) [Example 54, 6-methyl-2-(N-methylphenylamino)-4-(7-methyl-4,5,6,7-tetrahydrothieno[2,3-c]pyridin-6-yl)pyrimidine hydrochloride], the Effect ratio is given as 0.49.

With `Cc1cc(F)ccc1Nc1nc(C)c(C)c(N2CCc3ccsc3C2C)n1.Cl` (stereo not shown) [Example 55, 5,6-dimethyl-2-(2-methyl-4-fluorophenylamino)-4-(7-methyl-4,5,6,7-tetrahydrothieno[2,3-c]pyridin-6-yl)pyrimidine hydrochloride], the Effect ratio turned out to be 4.80.

Consider `Cc1cc(Nc2ccc(F)cc2C)nc(N2CCc3ccccc3C2C)n1.Cl` (stereo not shown) [Example 57, 6-methyl-4-(2-methyl-4-fluorophenylamino)-2-(1-methyl-1,2,3,4-tetrahydroisoquinolin-2-yl)pyrimidine hydrochloride], for which the Effect ratio is listed as 3.50.

Take `Cc1cc(Nc2ccc(F)cc2)nc(N2CCc3ccccc3C2C)n1.Cl` (stereo not shown) [Example 58, 6-methyl-4-(4-fluorophenylamino)-2-(1-methyl-1,2,3,4-tetrahydroisoquinolin-2-yl)pyrimidine hydrochloride]: the Effect ratio is reported as below 0.45.

For the compound `Cc1cc(Nc2ccc(F)cc2C)nc(N2CCc3ccsc3C2C)n1.Cl` (stereo not shown) [Example 59, 6-methyl-4-(2-methyl-4-fluorophenylamino)-2-(7-methyl-4,5,6,7-tetrahydrothieno[2,3-c]pyridin-6-yl)pyrimidine hydrochloride], the Effect ratio was ~ 0.60.

As to `Cc1cc(Nc2ccc(F)cc2)nc(N2CCc3ccsc3C2C)n1.Cl` (stereo not shown) [Example 60, 6-methyl-4-(4-fluorophenylamino)-2-(7-methyl-4,5,6,7-tetrahydrothieno[2,3-c]pyridin-6-yl)pyrimidine hydrochloride], the Effect ratio was ~ 0.51.
